Reference: PMC6994221
These are yes or no findings as the source states them, for the method shown. Some binding calls cover weakened binding; strength is not graded here.

Protein sequences, listed by entry. Tags and fused reporters are not part of them.
UniProt P68106: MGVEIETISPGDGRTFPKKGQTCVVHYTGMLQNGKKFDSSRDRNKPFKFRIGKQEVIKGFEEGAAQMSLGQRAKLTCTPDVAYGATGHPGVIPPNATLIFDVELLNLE

Target: type II ryanodine receptor (RyR2) (rat (endogenous in Wistar rat ventricular myocytes)) (UniProt B0LPN4)
Assay: Western blot of permeabilized myocytes after incubation with the purified protein; saponin-permeabilized rat ventricular myocytes exposed 10 min to 10 µmol/L FKBP12 or FKBP12.6, without or followed by the phosphorylation cocktail; sample buffer added directly to the cells; blot probed with anti-FKBP12; calsequestrin and RyR as loading controls; only the binder purified

Substance | binding
human FKBP12 (from UniProt P62942 1-108) | binds
human FKBP12.6 (from UniProt P68106 1-108) | binds
